Test results published in patent US20240084330A1.
No constants are given. Whether binding was seen depends on the method and setting. Some entries that bind do so weakly or less than the wild type.

The chains behind the UniProt entries cited, without tags or fusion partners.
UniProt Q7M732: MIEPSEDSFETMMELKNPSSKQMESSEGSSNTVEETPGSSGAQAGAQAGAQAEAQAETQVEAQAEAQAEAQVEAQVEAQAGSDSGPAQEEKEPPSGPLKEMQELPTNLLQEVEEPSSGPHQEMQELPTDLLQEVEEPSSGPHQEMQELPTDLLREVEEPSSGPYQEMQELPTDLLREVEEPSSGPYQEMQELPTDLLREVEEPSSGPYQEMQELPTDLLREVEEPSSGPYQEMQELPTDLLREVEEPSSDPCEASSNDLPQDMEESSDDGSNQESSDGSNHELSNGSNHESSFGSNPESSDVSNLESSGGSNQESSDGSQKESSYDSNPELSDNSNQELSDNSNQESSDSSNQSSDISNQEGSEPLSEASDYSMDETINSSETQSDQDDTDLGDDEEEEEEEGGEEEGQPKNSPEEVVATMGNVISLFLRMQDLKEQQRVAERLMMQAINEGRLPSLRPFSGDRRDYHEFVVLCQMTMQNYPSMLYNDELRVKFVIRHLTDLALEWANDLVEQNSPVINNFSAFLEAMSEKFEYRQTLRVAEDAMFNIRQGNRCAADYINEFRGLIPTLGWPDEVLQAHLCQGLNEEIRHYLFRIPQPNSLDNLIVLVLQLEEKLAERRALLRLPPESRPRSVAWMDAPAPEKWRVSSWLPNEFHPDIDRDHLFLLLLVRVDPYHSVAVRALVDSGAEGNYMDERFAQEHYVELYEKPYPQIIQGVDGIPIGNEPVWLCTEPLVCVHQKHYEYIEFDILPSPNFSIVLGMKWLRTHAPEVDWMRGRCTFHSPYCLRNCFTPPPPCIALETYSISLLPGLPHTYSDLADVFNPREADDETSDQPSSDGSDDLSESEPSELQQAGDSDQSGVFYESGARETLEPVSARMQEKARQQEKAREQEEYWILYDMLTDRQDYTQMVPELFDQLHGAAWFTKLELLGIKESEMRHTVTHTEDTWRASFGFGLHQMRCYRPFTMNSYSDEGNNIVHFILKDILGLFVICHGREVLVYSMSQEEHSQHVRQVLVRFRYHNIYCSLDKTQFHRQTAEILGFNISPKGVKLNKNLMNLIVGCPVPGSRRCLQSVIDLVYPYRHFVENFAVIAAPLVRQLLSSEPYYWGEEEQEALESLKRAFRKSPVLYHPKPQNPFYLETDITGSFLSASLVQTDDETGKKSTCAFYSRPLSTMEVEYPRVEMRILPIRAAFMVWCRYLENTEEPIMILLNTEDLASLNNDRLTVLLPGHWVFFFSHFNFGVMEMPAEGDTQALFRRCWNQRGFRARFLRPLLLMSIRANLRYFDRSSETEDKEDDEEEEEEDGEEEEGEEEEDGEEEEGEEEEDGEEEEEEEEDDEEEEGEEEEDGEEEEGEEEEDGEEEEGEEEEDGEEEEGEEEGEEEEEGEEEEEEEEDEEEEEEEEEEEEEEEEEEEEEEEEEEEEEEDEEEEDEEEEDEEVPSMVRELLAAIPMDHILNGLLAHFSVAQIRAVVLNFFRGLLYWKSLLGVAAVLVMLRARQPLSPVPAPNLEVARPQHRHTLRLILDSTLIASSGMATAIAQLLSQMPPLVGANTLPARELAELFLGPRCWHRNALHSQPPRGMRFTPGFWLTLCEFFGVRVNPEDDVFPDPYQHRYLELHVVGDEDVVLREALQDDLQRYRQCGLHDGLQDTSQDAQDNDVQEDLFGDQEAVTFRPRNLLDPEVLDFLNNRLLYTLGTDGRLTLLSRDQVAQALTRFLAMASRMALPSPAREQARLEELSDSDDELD

Target: MmRTL1 (mouse RTL1 produced in E. coli, tags removed) (mouse) (UniProt Q7M732)
Experiment: self-assembly of E. coli-produced protein; size exclusion and electron microscopy

- binding: binds
Substance: MmRTL1 (mouse RTL1 produced in E. coli, tags removed) (from UniProt Q7M732 1-1744)
